Article PMC8799692
These are yes or no findings as the source states them, for the method shown. In cells and extracts the contact can be indirect. A yes stands for co-enrichment or nearness to the bait. Other partners may have been found.

Biological target: T1, ARAF (mouse (endogenous in NRAS-mutated murine melanoma cells)) (UniProt P04627)
T1 sequence: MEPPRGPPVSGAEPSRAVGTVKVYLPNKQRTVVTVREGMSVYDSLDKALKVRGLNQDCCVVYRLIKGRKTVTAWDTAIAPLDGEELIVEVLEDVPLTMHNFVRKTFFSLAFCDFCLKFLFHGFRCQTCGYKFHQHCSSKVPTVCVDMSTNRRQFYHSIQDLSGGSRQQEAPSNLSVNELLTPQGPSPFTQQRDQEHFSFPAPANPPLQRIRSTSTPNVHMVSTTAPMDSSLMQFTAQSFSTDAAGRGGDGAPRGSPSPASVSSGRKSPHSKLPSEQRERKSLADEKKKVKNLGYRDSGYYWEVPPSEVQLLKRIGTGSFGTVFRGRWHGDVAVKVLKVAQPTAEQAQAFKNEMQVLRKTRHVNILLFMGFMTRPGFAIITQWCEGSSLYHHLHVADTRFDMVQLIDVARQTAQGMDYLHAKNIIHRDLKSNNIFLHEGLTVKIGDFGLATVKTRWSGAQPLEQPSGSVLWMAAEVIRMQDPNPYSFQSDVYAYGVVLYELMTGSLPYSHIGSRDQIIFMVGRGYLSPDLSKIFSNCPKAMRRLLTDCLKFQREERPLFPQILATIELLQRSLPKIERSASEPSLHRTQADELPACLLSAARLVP
Experiment: affinity purification with mass spectrometry; endogenous ARAF immunoprecipitated (ARAF antibody, protein-A magnetic beads, 4 °C, 4 hours) from 1 mg NP40-buffer lysate of ARAF-only cells against control cells with shRNA against ARAF; label-free quantification

binding: binds
B1: Iap (protein, UniProt P03975 1-557)
chain: MALQVMFGLEFFLVLEALLFLFTCYQVVKAGRILDEIQDKLSEVKRGERVGTKRKYGTQNKYTGLSKGLEPEEKLRLGRNTWREIRRKRGKREKKKDQLAEVSRKRSLCSSLDGLGKPALSSSEAGEESSSEETDWEEEAAHYQPANWSRKKPKAAGEGQFADWPQGSRLQGPPYAESPPCVVRQQCAERCAERQCAERQCADSFIPREEQRKIQQAFPVFEGAEGGRVHAPVEYLQIKEIAESVRKYGTNANFTLVQLDRLAGMALTPADWQTVVKAALPSMGKYMEWRALWHEAAQAQARANAAALTPEQRDWTFDLLTGQGAYSADQTNYHWGAYAQISSTAIRPGRRSRAGETTGQLTKIIQGPQESFSDFVARMTEAAERIFGESEQAAPLIEQLIYEQATKECRAVHSPKKEQRLTRLAQGLSRAWGKPRLLKTDNGPAYTSQKFQQFCRQMDVTHLTGLPYNPQGQGIVERAHRTLKAYLIKQKRGTFEETVPRAPRVSVSLALFTLNFLNIDAHGHTAAERHVQSQIGPMRWLNGKMSLIINGMARILS
